{"sequences": {"note": "Sequences of proteins named here, by UniProt entry; tags and fusion partners are left off.", "UniProt P37288, whole entry": "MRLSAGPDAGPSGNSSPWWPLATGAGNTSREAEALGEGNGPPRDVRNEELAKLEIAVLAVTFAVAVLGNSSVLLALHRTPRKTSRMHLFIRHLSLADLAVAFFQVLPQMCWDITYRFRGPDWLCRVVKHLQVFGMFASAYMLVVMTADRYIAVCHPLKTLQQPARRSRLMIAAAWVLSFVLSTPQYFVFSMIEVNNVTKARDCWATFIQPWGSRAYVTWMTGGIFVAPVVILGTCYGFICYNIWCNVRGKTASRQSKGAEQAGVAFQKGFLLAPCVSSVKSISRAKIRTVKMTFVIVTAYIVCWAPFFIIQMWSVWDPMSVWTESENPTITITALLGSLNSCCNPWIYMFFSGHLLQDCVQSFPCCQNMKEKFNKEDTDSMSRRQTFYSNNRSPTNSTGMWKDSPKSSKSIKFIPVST"}, "source": "patent US20260207702A1", "about": "“USE OF AVPR1A AGONISTS” (Viage Therapeutics Inc., priority 2022, published 2026)", "key": {"AVPR1A": {"molecular_target": "AVPR1A (Homo sapiens, UniProt P37288)", "experiment": "More universal and more sensitive GPCR screen (in vitro)", "type": "cell-based", "conditions": "candidate receptor AVPR1A"}, "healthy subjects [1]": {"test_system": "healthy subjects", "experiment": "Phase 1a/1b study, Patient Health Questionnaire-9 (PHQ-9)", "type": "in vivo, human", "conditions": "group MAD3 (540 mg/day, seven days), versus placebo; preliminary data"}, "AVPR2": {"test_system": "AVPR2", "experiment": "More universal and more sensitive GPCR screen (in vitro)", "type": "cell-based", "conditions": "candidate receptor AVPR2"}, "[2]": {"test_system": "Trp channels (TRPA1, TRPV1), nutrient and metabolite sensing GPCRs (FFAR1, FFAR2, FFAR3, FFAR4, GPR119, CaS, GPR142, GPBAR1 and LPA5), taste receptors, cell …", "experiment": "Initial target screens (Trp channels, nutrient/metabolite sensing GPCRs, taste receptors, genome-wide binding screen, 168 GPCRs)", "conditions": "binding-based and agonist or antagonist activity screens"}, "[3]": {"test_system": "neurotransmitters in prefrontal cortex or striatum", "experiment": "Brain microdialysis study, neurotransmitter levels by HPLC-MS", "type": "in vivo, Male C57Bl/6 mice", "conditions": "single 3 mg/kg oral dose"}, "[4]": {"test_system": "mouse gastrointestinal tissue cells (enterocyte, enteroendocrine sensory cell)", "experiment": "Histological staining of gastrointestinal tissue sections with fluorescently labeled peptide and cell-specific markers", "type": "binding", "conditions": "fluorescently labeled peptide, data not shown"}, "TNF-α": {"test_system": "TNF-α", "experiment": "LPS-induced inflammation, plasma TNF-α by ELISA", "type": "in vivo, Mice", "conditions": "LPS 10 μg/kg i.p.; peptide 0.3, 3 or 10 mg/kg p.o. twice, 2.5 and 3.5 hours after LPS; blood 4 hours after LPS"}, "healthy subjects [5]": {"test_system": "healthy subjects", "experiment": "Phase 1a/1b study, insomnia severity index (ISI) sleep quality", "type": "in vivo, human"}, "Mice": {"test_system": "Mice", "experiment": "Tail suspension test (TST), dose dependency and repeat dosing (Example 8)", "type": "in vivo", "conditions": "for Immobility time in TST (indicative of stress resilience): vs vehicle"}, "mouse": {"test_system": "mouse", "experiment": "Tail suspension test (TST) with vasopressin receptor inhibitors (Example 1)", "type": "in vivo", "text": "NO: 1) is either AVPR1A or AVPR2 (FIGS. 1-2)."}, "GNRHR": {"molecular_target": "T1, GNRHR (Homo sapiens, UniProt P30968)", "T1 sequence (P30968 1-328)": "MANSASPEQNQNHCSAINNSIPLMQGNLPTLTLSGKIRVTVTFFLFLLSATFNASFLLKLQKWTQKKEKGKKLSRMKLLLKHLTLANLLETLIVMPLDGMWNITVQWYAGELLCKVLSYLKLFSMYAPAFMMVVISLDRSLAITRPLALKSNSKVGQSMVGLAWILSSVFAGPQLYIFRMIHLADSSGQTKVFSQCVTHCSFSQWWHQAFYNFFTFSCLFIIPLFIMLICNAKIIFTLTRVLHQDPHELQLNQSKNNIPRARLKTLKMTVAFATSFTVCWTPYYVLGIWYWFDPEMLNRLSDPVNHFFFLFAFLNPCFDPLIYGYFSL", "experiment": "More universal and more sensitive GPCR screen (in vitro)", "type": "cell-based"}, "healthy subjects [6]": {"test_system": "healthy subjects", "experiment": "Phase 1a/1b study, CogState cognitive assessments", "type": "in vivo, human"}, "healthy subjects [7]": {"test_system": "healthy subjects", "experiment": "Phase 1a/1b study, alpha slow wave index (ASI) in the frontal cortex", "type": "in vivo, human", "conditions": "peptide-treated subjects, across doses"}, "AVPR1B": {"molecular_target": "T2, AVPR1B (Homo sapiens, UniProt P47901)", "T2 sequence (P47901 1-424)": "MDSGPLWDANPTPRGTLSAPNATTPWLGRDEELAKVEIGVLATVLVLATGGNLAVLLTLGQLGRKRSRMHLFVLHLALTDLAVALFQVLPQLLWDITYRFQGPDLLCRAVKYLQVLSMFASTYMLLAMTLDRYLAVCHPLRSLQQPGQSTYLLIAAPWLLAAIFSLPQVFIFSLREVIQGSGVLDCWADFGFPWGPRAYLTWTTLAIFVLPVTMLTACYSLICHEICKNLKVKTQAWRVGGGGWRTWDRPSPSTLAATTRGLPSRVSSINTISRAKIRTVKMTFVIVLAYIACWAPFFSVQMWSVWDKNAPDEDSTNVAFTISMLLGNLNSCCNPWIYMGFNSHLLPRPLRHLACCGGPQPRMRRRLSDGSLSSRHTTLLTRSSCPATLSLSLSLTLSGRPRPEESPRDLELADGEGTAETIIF", "experiment": "More universal and more sensitive GPCR screen (in vitro)", "type": "cell-based", "conditions": "candidate receptor AVPR1B"}, "healthy subjects [8]": {"test_system": "healthy subjects", "experiment": "Phase 1a/1b study, quantitative EEG (qEEG) band power", "type": "in vivo, human"}, "[9]": {"conditions": "prefrontal cortex, dialysate every 30 minutes for four hours"}, "[10]": {"conditions": "groups MAD1-MAD3, after seven days of treatment, preliminary data"}, "[11]": {"conditions": "MAD1, 60 mg, 1 hr after the final dose, preliminary"}, "[12]": {"conditions": "MAD2, 180 mg, before administering the final dose, preliminary"}}, "note": "Where two headings read alike, the source gives them in different places. Part of at least one peptide drawing is inferred or uncertain, most often the ends. Where a SMILES comes first, the peptide text is derived from it."}
{"smiles": "CC(C)C[C@H](N)C(=O)N[C@@H](CO)C(=O)N[C@@H](CO)C(=O)N[C@H](C(=O)N[C@@H](CCC(N)=O)C(=O)N[C@@H](C)C(=O)N[C@@H](CCC(N)=O)C(=O)N[C@@H](CCC(N)=O)C(=O)N[C@@H](CO)C(=O)N[C@@H](Cc1ccc(O)cc1)C(=O)O)[C@@H](C)O", "note": "[LSSTQAQQSY (SEQ ID NO: 1), LSSTQAQQSY] (H-LSSTQAQQSY-OH; N-terminus and C-terminus assumed)", "values": [{"measurement": "Activated by peptide in in vitro screens?", "setting": "AVPR1A", "result": "possible targets were identified"}, {"measurement": "Activated by peptide in in vitro screens?", "setting": "AVPR1A; listed as peptide", "result": "Yes"}, {"measurement": "PHQ-9 measures of mood, depression, sleep, awareness, and/or alertness (questions 1-3 and 6)", "setting": "healthy subjects [1]", "result": "improvement"}, {"measurement": "Activated by peptide in in vitro screens?", "setting": "AVPR2", "result": "possible targets were identified"}, {"measurement": "Activated by peptide in in vitro screens?", "setting": "AVPR2; listed as peptide", "result": "Yes"}, {"measurement": "Outcome of initial screens", "setting": "[2]", "result": "negative or provided non-reproducible hits"}, {"measurement": "Change in other neurotransmitters (dopamine, serotonin, glutamate, GABA, glycine)", "setting": "[3]; prefrontal cortex", "result": "No significant changes"}, {"measurement": "Change in histamine", "setting": "[3]; [9]", "result": "Statistically significant changes"}, {"measurement": "Change in norepinephrine", "setting": "[3]; [9]", "result": "Statistically significant changes"}, {"measurement": "Change in all evaluated neurotransmitters", "setting": "[3]; striatum", "result": "No significant changes"}, {"measurement": "Overlap of peptide binding with enteroendocrine sensory cell marker", "setting": "[4]", "result": "overlapped"}, {"measurement": "Overlap of peptide binding with general enterocyte marker staining", "setting": "[4]", "result": "did not overlap"}, {"measurement": "Plasma levels of TNF-α", "setting": "TNF-α", "result": "trend of TNF-α suppression"}, {"measurement": "Sleep quality (insomnia severity index, ISI)", "setting": "healthy subjects [5]; MAD Cohort 1, 7 days of dosing with 540 mg", "result": "Improved sleep quality"}, {"measurement": "Sleep quality (insomnia severity index, ISI)", "setting": "healthy subjects [5]; MAD Cohort 1, dosing for 7 days, 60/180/540 mg/day", "result": "dose-dependent improvement in sleep quality"}, {"measurement": "Sleep quality (insomnia severity index, ISI)", "setting": "healthy subjects [5]; crossover study (MAD Cohort 2), 7 days of dosing with 540 mg", "result": "Improved sleep quality"}, {"measurement": "Immobility time in TST (indicative of stress resilience)", "setting": "Mice; 3 mg/kg", "result": "Reduced immobility time"}, {"measurement": "Immobility time in TST (indicative of stress resilience)", "setting": "Mice; 10 mg/kg, greater difference than at 3 mg/kg", "result": "Reduced immobility time"}, {"measurement": "Efficacy in TST on repeat dosing", "setting": "Mice; daily for 5 days", "result": "increased efficacy"}, {"measurement": "Efficacy in TST on repeat dosing", "setting": "Mice; repeat dosing at two hour intervals", "result": "increased efficacy"}, {"measurement": "Peptide activity blocked by conivaptan (AVPR1A/AVPR2 inhibitor) in vivo?", "setting": "mouse", "result": "blocked"}, {"measurement": "Peptide activity blocked by nelivaptan (AVPR1A/1B inhibitor) in vivo?", "setting": "mouse", "result": "blocked"}, {"measurement": "Peptide activity blocked by tolvaptan (AVPR2 inhibitor) in vivo?", "setting": "mouse", "result": "not blocked"}, {"measurement": "Peptide activity blocked by conivaptan (AVPR1A/AVPR2 inhibitor) in vivo?", "setting": "mouse; listed as Peptide", "result": "Yes"}, {"measurement": "Peptide activity blocked by nelivaptan (AVPR1A/1B inhibitor) in vivo?", "setting": "mouse; listed as Peptide", "result": "Yes"}, {"measurement": "Peptide activity blocked by tolvaptan (AVPR2 inhibitor) in vivo?", "setting": "mouse; listed as Peptide", "result": "No"}, {"measurement": "Possible target identified in GPCR screen", "setting": "GNRHR", "result": "possible targets were identified"}, {"measurement": "Subjects improved compared to the placebo on at least one of the four Cogstate tests", "setting": "healthy subjects [6]; MAD Cohort 2 (crossover, 540 mg/day)", "result": "Twelve of the thirteen"}, {"measurement": "Peptide-treated subjects with a better composite cognition score than placebos", "setting": "healthy subjects [6]; MAD Cohort 2 (crossover, 540 mg/day), day 1 (pre-dosing), no statistically significant difference", "result": "Five out of 13"}, {"measurement": "Peptide-treated subjects with an improved composite cognition score", "setting": "healthy subjects [6]; MAD Cohort 2 (crossover, 540 mg/day), day 7, four hours post-dosing, p<0.01", "result": "twelve out of thirteen"}, {"measurement": "Subjects with test improvement in the Groton Maze Learning test", "setting": "healthy subjects [6]; MAD Cohort 2 (crossover, 540 mg/day), p<0.03", "result": "9/13"}, {"measurement": "Groton Maze Learning Test (GMLT)", "setting": "healthy subjects [6]; [10]", "result": "positive trend"}, {"measurement": "Identification Test (IDN)", "setting": "healthy subjects [6]; [10]", "result": "positive trend"}, {"measurement": "One Card Learning Test (OCL)", "setting": "healthy subjects [6]; [10]", "result": "positive trend"}, {"measurement": "Detection Test (DET), psychomotor function", "setting": "healthy subjects [6]; groups MAD1-MAD3, versus placebo, preliminary data", "result": "did not have a significant impact"}, {"measurement": "Cognition scores", "setting": "healthy subjects [6]; seven days of dosing, healthy volunteers", "result": "improved"}, {"measurement": "Executive function, attention, and visual learning", "setting": "healthy subjects [6]; study conclusion", "result": "improved"}, {"measurement": "Alpha slow wave index (ASI; alpha/(delta+theta)) in the frontal cortex", "setting": "healthy subjects [7]", "result": "dose-dependent increase"}, {"measurement": "Activated by peptide in in vitro screens?", "setting": "AVPR1B", "result": "No"}, {"measurement": "Likely target", "setting": "AVPR1B", "result": "No"}, {"measurement": "Alpha band power", "setting": "healthy subjects [8]; [11]", "result": "about 150 % of baseline"}, {"measurement": "Gamma band power", "setting": "healthy subjects [8]; [11]", "result": "about 140 % of baseline"}, {"measurement": "Alpha band power", "setting": "healthy subjects [8]; MAD1, 60 mg, before administering the final dose (day 7), preliminary", "result": "about 80 % of baseline"}, {"measurement": "Gamma band power", "setting": "healthy subjects [8]; MAD1, 60 mg, before administering the final dose, preliminary", "result": "100-110 % of baseline"}, {"measurement": "Gamma band power", "setting": "healthy subjects [8]; MAD1, 60 mg, remained for 8 hr, preliminary", "result": "above 125 % of baseline"}, {"measurement": "Gamma band power", "setting": "healthy subjects [8]; MAD2, 180 mg, 1 hr after the final dose, preliminary", "result": "about 125 % of baseline"}, {"measurement": "Alpha band power", "setting": "healthy subjects [8]; MAD2, 180 mg, 2 hr after the final dose, preliminary", "result": "about 150 % of baseline"}, {"measurement": "Gamma band power", "setting": "healthy subjects [8]; MAD2, 180 mg, after 12 hr, preliminary", "result": "above 150 % of baseline"}, {"measurement": "Alpha band power", "setting": "healthy subjects [8]; [12]", "result": "about 110 % of baseline"}, {"measurement": "Gamma band power", "setting": "healthy subjects [8]; [12]", "result": "100-110 % of baseline"}, {"measurement": "Alpha band power", "setting": "healthy subjects [8]; MAD2, 180 mg, remained until about 12 hr after the final dose, preliminary", "result": "above 110 % of baseline"}, {"measurement": "Alpha band power", "setting": "healthy subjects [8]; MAD3, 540 mg, before administering the final dose, preliminary", "result": "about 100 % of baseline"}, {"measurement": "Alpha band power", "setting": "healthy subjects [8]; MAD3, 540 mg, from 1 hr to 12 hr after administering the final dose, preliminary", "result": "70-80 % of baseline"}, {"measurement": "Power of alpha and gamma EEG bands", "setting": "healthy subjects [8]; doses of 60 mg/day or 180 mg/day, preliminary", "result": "increased"}, {"measurement": "Alpha power", "setting": "healthy subjects [8]; eyes open and closed states", "result": "increases in Alpha power"}]}
